Data source: PubChem BioAssay AID1259266 (Sanger Institute, 2017)

- Screen: 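Find knock-downs that kill LS123 cells or act with anchor drugs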 (primary screen)
- Cell system: LS123 human colorectal cancer cells
- Knock-down reagent: siRNA pool against human genes
- Challenge: anchor drugs BYL719 (1 µM), cetuximab (5 µg/ml) or trametinib (10 nM), each chosen to barely slow growth alone; DMSO vehicle as the drug-free arm
- Measured: 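Replicate-averaged viability scaled to non-targeting pools, robust z-score for siRNA alone, and a synergy score per anchor drug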
- Scale: robust z-score, knock-down alone: higher = more cells surviving after knock-down
- Hit rule: 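a knock-down counts as essential if its z-score without drug is under -3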
- Meaning of the calls: active = essential (knock-down alone cuts viability); inactive = no change
This is an unselected part of 794 reagents tested. In the full data, 16 (2%) are marked active. 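Calls reflect knock-down alone, not drug synergy; viability seems capped at 1 and z-scores at 0.585.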 Unmarked entries are inactive. Not all columns of the deposit are shown. Not stated in the record: the amount of reagent, the time to read-out.

CHEK2 → robust z-score, knock-down alone: 0.585
PKIA → robust z-score, knock-down alone: 0.585
AKAP9 → robust z-score, knock-down alone: -0.812
EPHB1 → robust z-score, knock-down alone: -1.5
PSTK → robust z-score, knock-down alone: 0.585
IP6K1 → robust z-score, knock-down alone: 0.585
CDK1 → robust z-score, knock-down alone: 0.585
MST1R → robust z-score, knock-down alone: -0.735
MAPK14 → robust z-score, knock-down alone: -1.5
MAP3K7 → robust z-score, knock-down alone: 0.585
PTK2B → robust z-score, knock-down alone: 0.585
MPP2 → robust z-score, knock-down alone: 0.585
PIP5KL1 → robust z-score, knock-down alone: 0.585
EPHA10 → robust z-score, knock-down alone: -1.5
PIK3CB → robust z-score, knock-down alone: 0.585
ADCK1 → robust z-score, knock-down alone: 0.498
SOX9 → robust z-score, knock-down alone: -0.0367
RELA → robust z-score, knock-down alone: 0.0824
DMPK → robust z-score, knock-down alone: 0.585
MAP3K21 → robust z-score, knock-down alone: 0.585
FGFR2 → robust z-score, knock-down alone: 0.436
HSPB8 → robust z-score, knock-down alone: -1.51
RIPK4 → robust z-score, knock-down alone: 0.585
XYLB → robust z-score, knock-down alone: 0.585
AGK → robust z-score, knock-down alone: 0.585
AK1 → robust z-score, knock-down alone: -1.12
ADCK5 → robust z-score, knock-down alone: 0.499
PI4KA → robust z-score, knock-down alone: 0.0571
IGF2R → robust z-score, knock-down alone: 0.585
PDK1 → robust z-score, knock-down alone: -0.226
RPS6KA1 → robust z-score, knock-down alone: 0.585
CKS2 → robust z-score, knock-down alone: 0.585
JAK3 → robust z-score, knock-down alone: 0.583
PRKG1 → robust z-score, knock-down alone: 0.585
DGKH → robust z-score, knock-down alone: 0.471
ITPK1 → robust z-score, knock-down alone: 0.585

Copied from the list:
Entry of PIK3CB under “robust z-score, knock-down alone”: 0.585
CKS2, robust z-score, knock-down alone → 0.585
Entry of CHEK2 under “robust z-score, knock-down alone”: 0.585
PI4KA, robust z-score, knock-down alone → 0.0571
Under “robust z-score, knock-down alone”, IGF2R reads 0.585
